These are yes or no findings as the source states them, for the method shown. A result given as binding can be weak or reduced; the word gives no strength.
Tests used:
[1] = molecular target: canine CD137 overexpressed on HEK293F cell surface (dog); assay: flow cytometry, HEK293F cells expressing CD137, IgG 100 nM [Cont.]
[2] = molecular target: rat CD137 (as named in the SPR paragraph) (rat); assay: SPR paragraph
[3] = molecular target: canine CD137 overexpressed on HEK293F cell surface (dog); assay: summary of Example 4
[4] = molecular target: canine CD137 overexpressed on HEK293F cell surface (dog); assay: flow cytometry, HEK293F

Row | binding [1] | binding [2] | binding [3] | binding [4] | Binder
1 | binds | binds | binds | binds | AG10058 (antibody, human IgG4 S228P, kappa, V domains shown) VH: EVQLVESGGGLVQPGGSLRLSCAASGFSLSTSGVGVGWIRQAPGKGLEWLALIDWDDDKYYSPSLKSRLTISRDNSKNTLYLQLNSLRAEDTAVYYCARGGSDTVLGDWFAYWGQGTLVTVSS VL: DIQLTQSPSSLSASVGDRVTITCRASQSVSPYLAWYQQKPGKAPKLLIYDASSLESGVPSRFSGSGSGTDFTLTISSLQPEDFATYYCQQGYSLWTFGQGTKVEIKR
2 | binds | no binding |  |  | AG10059 (antibody, human IgG4 S228P, kappa, V domains shown) VH: EVQLVESGGGLVQPGGSLRLSCAASGYSITSGHYWAWIRQAPGKGLEWVSSISGYGSTTYYADSVKGRFTISRDNSKNTLYLQLNSLRAEDTAVYYCARGGSDAVLGDWFAYWGQGTLVTVSS VL: DIQLTQSPSSLSASVGDRVTITCRASQGIGSFLAWYQQKPGKAPKLLIYDASNLETGVPSRFSGSGSGTDFTLTISSLQPEDFATYYCQQGYYLWTFGQGTKVEIKR
